According to patent US20240294636A1 (YALE UNIVERSITY, published 2024):
Where a chain is given by its changes, count along the chain named. No constants are given. Whether binding was seen depends on the method and setting. Some binding calls cover weakened binding; strength is not graded here.

The chains behind the UniProt entries cited, without tags or fusion partners. Residues count along the entry.
UniProt O08722, residues 27-945: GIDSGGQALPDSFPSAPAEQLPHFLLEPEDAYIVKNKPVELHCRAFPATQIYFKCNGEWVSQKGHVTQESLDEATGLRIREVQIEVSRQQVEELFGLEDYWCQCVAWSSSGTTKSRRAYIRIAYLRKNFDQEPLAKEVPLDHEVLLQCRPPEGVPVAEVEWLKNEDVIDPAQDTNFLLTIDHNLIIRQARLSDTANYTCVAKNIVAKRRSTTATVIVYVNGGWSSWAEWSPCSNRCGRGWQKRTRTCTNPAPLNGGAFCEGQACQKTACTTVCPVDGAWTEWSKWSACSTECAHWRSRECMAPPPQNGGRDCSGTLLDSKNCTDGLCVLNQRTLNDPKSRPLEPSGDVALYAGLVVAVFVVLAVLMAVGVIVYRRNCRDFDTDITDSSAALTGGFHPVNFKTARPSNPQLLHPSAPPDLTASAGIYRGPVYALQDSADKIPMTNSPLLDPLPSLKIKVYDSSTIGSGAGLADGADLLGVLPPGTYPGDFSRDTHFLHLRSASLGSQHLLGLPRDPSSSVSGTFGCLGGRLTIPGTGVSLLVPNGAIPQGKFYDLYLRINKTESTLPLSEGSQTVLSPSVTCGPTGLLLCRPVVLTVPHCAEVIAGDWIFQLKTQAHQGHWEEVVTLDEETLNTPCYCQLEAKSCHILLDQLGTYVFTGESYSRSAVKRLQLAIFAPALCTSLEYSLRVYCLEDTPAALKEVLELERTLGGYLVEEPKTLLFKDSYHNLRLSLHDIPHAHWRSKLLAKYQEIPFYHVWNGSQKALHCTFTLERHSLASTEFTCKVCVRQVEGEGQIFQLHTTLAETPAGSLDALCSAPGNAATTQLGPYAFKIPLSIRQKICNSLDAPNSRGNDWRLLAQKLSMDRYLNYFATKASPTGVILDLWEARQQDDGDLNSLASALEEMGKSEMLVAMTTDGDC
UniProt Q8IZJ1, residues 27-945: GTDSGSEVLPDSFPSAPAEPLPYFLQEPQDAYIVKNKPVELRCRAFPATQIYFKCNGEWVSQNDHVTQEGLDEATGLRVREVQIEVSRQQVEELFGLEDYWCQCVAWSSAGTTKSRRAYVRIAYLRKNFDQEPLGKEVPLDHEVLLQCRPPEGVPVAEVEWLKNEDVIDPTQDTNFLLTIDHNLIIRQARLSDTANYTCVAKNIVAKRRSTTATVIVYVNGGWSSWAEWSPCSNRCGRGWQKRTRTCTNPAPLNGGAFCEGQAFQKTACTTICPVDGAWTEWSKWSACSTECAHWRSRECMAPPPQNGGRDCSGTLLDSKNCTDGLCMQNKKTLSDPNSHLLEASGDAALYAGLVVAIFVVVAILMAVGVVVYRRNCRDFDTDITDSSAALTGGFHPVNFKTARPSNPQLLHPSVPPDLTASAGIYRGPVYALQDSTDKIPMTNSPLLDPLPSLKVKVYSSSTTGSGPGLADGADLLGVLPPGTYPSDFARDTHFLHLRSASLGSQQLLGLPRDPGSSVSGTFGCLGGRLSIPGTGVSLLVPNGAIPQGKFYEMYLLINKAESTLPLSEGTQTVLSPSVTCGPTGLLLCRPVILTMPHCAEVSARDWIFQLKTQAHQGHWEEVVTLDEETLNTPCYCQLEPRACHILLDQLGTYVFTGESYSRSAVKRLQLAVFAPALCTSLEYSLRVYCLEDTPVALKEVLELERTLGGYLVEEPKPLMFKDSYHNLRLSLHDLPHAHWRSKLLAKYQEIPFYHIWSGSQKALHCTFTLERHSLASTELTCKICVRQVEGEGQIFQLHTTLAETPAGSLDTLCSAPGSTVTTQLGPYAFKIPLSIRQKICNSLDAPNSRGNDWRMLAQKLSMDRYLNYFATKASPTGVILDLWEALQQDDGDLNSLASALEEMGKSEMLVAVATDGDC

B1: 1095 (antibody, human IgG2, kappa, V domains shown)
VH: EVQLVESGGGLVQPGGSLRLSCAASGFNISYSSIHWVRQAPGKGLEWVAYIYPYYGYTYYADSVKGRFTISADTSKNTAYLQMNSLRAEDTAVYYCARGYGIDYWGQGTLVTVSS
VL: DIQMTQSPSSLSASVGDRVTITCRASQSVSSAVAWYQQKPGKAPKLLIYSASSLYSGVPSRFSGSRSGTDFTLTISSLQPEDFATYYCQQHYSLFTFGQGTKVEIKR
B2: anti-Unc5B antibody 1103 (antibody, V domains shown)
VH: B1 VH with S32Y, Y50S, P53S, Y54S, Y55S, Y59S, I102L
VL: DIQMTQSPSSLSASVGDRVTITCRASQSVSSAVAWYQQKPGKAPKLLIYSASSLYSGVPSRFSGSRSGTDFTLTISSLQPEDFATYYCQQHYSYPITFGQGTKVEIKR
notes: also called anti-Unc5B-3
B3: 1100 (antibody, V domains shown)
VH: B1 VH with I29L, S30Y, Y50S, P53S, Y55S, G56S, Y59S, G101A, I102M
VL: B1 VL with S93G, F95I

Key:
[1] = molecular target: rat Unc5B coupled to GFP (expressed in porcine aortic endothelial cells) (rat) (UniProt O08722); test: immunoprecipitation from PAECs transfected with rat Unc5B-GFP, 1 h after antibody treatment
[2] = molecular target: rat Unc5B coupled to GFP (expressed in porcine aortic endothelial cells) (rat) (UniProt O08722); test: immunoprecipitation from PAEC cells transfected with rat Unc5B-GFP with the named antibody, western blot of the precipitate for UNC5B, GFP and Claudin5
[3] = molecular target: human Unc5B (human) (UniProt Q8IZJ1); test: immunoprecipitation from HUVEC with the named antibody, western blot of the precipitate for Unc5B and Claudin5

Binder	binding [1]	binding [2]	binding [3]
B1	binds	binds	–
B2	–	–	binds
B3	–	–	binds
